Measurements from publication doi:10.1101/2025.05.26.656197.

Chains of the proteins cited; added tags and fusions are not shown.
UniProt Q8BK63: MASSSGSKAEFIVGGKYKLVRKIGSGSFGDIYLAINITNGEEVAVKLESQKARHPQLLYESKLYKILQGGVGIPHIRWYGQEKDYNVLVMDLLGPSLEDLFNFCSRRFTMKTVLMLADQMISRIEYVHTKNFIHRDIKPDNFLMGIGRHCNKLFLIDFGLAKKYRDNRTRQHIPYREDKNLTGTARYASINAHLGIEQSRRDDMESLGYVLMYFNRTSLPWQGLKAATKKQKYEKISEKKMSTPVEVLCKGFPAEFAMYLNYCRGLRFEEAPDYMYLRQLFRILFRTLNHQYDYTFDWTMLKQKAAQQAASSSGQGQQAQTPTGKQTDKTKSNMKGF

Target: casein kinase 1 alpha (CK1α), mouse (mouse (endogenous in ileum of C57BL/6 mice)) (UniProt Q8BK63)
Experiment: affinity purification with mass spectrometry

binding: binds
B1: Family with Sequence Similarity 83 Member H (FAM83H), wild type, mouse (protein, UniProt Q148V8 1-1209)
chain: MARRSQSSSQGDNPLAPGYLPPHYKEYYRLAVDALTEGGPEAYNRFLASEGAPDFLCPEELEHVSRHLQPPQYVAREPPEGTPSDVDMDGSSGTYWPVNSDQAVPELDLGWPLTFGFQGTEVTTLVQPPPPDSPSIKDEARRMIRSAQQVVAVVMDMFTDVDLLSEVLEAAARRVPVYILLDEMNAQHFLDMADKCRVNLHHVDFLRVRTVAGPTYYCRTGKSFKGHLKEKFLLVDCAVVMSGSYSFMWSFEKIHRSLAHVFQGELVSSFDEEFRILFAQSEPLVPSAGALARMDAYALAPYSGAGPLVGVPGVGAPTPFSFPKRAHLLFPPPREEGLGFPSFLDPDRHFLSAFRREELQRMPGGALEPHTGLRPLARPTEAGPFGELAGPRGFFQSRHLEMDAFKRHSYATPDGAGAVENFAAARQVSRQTFLSHGDDFRFQTSHFQRDQLYQQHYQWDPQFAPARPQGLFEKLRAGRPGFADPDDFALGAGHRFPELGADVHQRLEYVPSSASREVRHGSDPAFGPSPRGLEPSGASRPNLGQRFPCQATLRQGLDTASEAEPERRGGPEGRAGLRHWRLASYLSGCHGDGGEEGLPMEAEACEDEVLAPGGRDLLPSAFRTPAAFPAKGPKPGSGSGGGDSSEREGPEETSLAKQDSFRSRLNPLIQRSSRLRSSLIFASQAEGAVGTAAATTEKVQLMHKEQTVSETLGPSGEAVRSSASAKVAELLEKYKGPARDPGGAGGAVTSSSHSKAVVSQAWREEVVAPGGAGTERRSLESCLLDLRDSFAQQLHQEAERHPGAASLTAAQLLDTLGGTDRLPSRFLSAQGRSLSPQGRDSPPPEGLGTHQLPYSEPKGNPTPAYPERKGSPTPAYPERKGSPTPAYPERKGSPTPAYPERKGSPTQAYPERKGSPTSGFPNRRGSPTTGLMEQKGSPTSTYPDRRGSPVPPVPERRGSPVPPVPERRGSLTFAGESSKTGPTEEVSSGPMEVLRKGSLRLRQLLSPKNERRGEDEGSFPTPQENGQPESPRRPSLSRGDSTEAAAEERGSRVRLASATANALYSSNLRDDTKAILEQISAHGQKHRGVPAPGPAHSSPDVGRPTTAGDLAPDMSDKDKCSAIFRSDSLGTQGRLSRTLPGSAEERDRLLRRMESMRKEKRVYSRFEVFCKKDEAGSSGAGDNLADEDTRDSKMGKFVPKILGTFKSKK

No constants are given. Whether binding was seen depends on the method and setting. In cells and extracts the contact can be indirect. A yes stands for co-enrichment or nearness to the bait. Other partners may have been found.
